Results: patent US20180364256A1
Changes are numbered by the printed parent chain. These are yes or no findings as the source states them, for the method shown. Some entries that bind do so weakly or less than the wild type.

Chains of the proteins cited; added tags and fusions are not shown. Lines headed by an entry give the natural chain unless they say otherwise; changes in a name come on top. A line that says so, or that is headed by a name, gives the form on record, which may keep a tag or linker.
mouse cardiac TnT (P50752, form named): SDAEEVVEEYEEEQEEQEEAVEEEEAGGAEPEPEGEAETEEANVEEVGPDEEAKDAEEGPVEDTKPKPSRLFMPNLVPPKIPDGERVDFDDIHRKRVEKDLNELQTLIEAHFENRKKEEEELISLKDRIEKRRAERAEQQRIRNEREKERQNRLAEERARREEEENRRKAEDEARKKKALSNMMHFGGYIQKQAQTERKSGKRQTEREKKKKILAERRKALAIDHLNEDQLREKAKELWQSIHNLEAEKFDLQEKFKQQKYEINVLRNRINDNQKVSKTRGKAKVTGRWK

B1: mouse monoclonal antibody 3F3 (antibody, IgG1, V domains shown)
VH: GPELVKPGASVKISCKTSGYTFTENTIHWVKQSHGKSLEWVGGINPNNGGTNYNQKFKGRAALTVDKSSSTAYMELRSLTSEDSAVYYCARSWDWFAYWGQGTLVTVSA
VL: LSLPVSLGDQASISCRSSQSLVHSNGNTYLHWYLQKPGQSPKLLVYKVSNRFSGVPDRFSGSGSGTDFTLKIIRVKAEDLGVYFCSQSTRIPFTFGSGTKLEMKR
B2: mouse monoclonal antibody 2F11 (antibody, IgG1, V domains shown)
VH: B1 VH
VL: B1 VL
B3: mouse monoclonal antibody 1D6 (antibody, V domains shown)
VH: B1 VH
VL: B1 VL with K76E
B4: mouse monoclonal antibody 2A8 (antibody, V domains shown)
VH: B1 VH
VL: B1 VL with K76E
B5: mouse monoclonal antibody 2D11 (antibody, IgG1, V domains shown)
VH: B1 VH
VL: B1 VL
B6: mouse monoclonal antibody 2C1 (antibody, V domains shown)
VH: B1 VH
VL: B1 VL with K76E
B7: mouse monoclonal antibody 3H5 (antibody, IgM, V domains shown)
VH: GGGLVQPKGSLKLSCAASGFTFNTYAMNWVRQAPGKGLEWVARIRSKSNNYATYYADSVKDRFTISRDDSQSMLYLQMNNLKTEDTAMYYCVRHDGVAWFAYWGQGTLVTVSA
VL: LSLPVSLGDQASISCRSSQSIVHSNGNTYLEWYLQKPGQSPKLLIYKVSNRFSGVPDRFSGSGSGTDFTLKISRVEAEDLGVYYCFQGSHVPPTFGAGTKLELKR
B8: mouse monoclonal antibody 2D9 (antibody, IgM, V domains shown)
VH: B7 VH
VL: B7 VL with R16K, E31K, E76K
B9: mouse monoclonal antibody 2H3 (antibody, IgM, V domains shown)
VH: B7 VH
VL: B7 VL with E76K
B10: mouse monoclonal antibody 4F5 (antibody, IgM, V domains shown)
VH: B7 VH
VL: B7 VL with R16K, E76K

These binders were tested against N-terminal fragment of human cardiac troponin T (HcTnT-N69) (human) (assay: indirect ELISA titration, antigen immobilised on plate).

binding, binds:
B1
B2

Each binder was assayed against intact human cardiac troponin T (HcTnT) (human) (UniProt P45379) in the same assay as above.

binding, binds:
B3
B4
B5
B1
B2
B6
B7

Each binder was assayed against N-terminal fragment of human cardiac troponin T (HcTnT-N69) (human) (assay: assay not named in the sentence (ELISA titration per the Examples)).

binding, binds:
B1
B2

These binders were tested against intact human cardiac troponin T (HcTnT) (human) (UniProt P45379) in the same assay as above.

binding, binds:
B3
B4
B5
B1
B2
B6
B7
B8
B9
B10

The binders below were run against N-terminal fragment of human cardiac troponin T (HcTnT-N69) (human) (assay: assay not named in the sentence (ELISA titration, FIG. 9A)).

binding, binds:
B1
B2

These binders were tested against intact human cardiac troponin T (HcTnT) (human) (UniProt P45379) in the same assay as above.

binding, binds:
B3
B4
B5
B1
B2
B6
B7

Each binder was assayed against intact human cardiac troponin T (HcTnT) (human) (UniProt P45379) (assay: Western blot on total protein extracts of cardiac and skeletal muscle tissues).

binding, binds:
B3
B4
B5
B1
B2
B6
B7
B10

The binders below were run against mouse cardiac TnT (mouse) (UniProt P50752) in the same assay as above.

binding, binds:
B10
